± gives the standard deviation. The entries are a selection whose mix differs from that of the whole data set. Many of these values have a large error.
Test system: EfPiwi piRISC loaded with piRNA #1 (26 nt)
Assay: pre-steady-state target cleavage rate (min^-1); guide: piRNA #1 5'p-UGAGGUAGUAGGUUGUAUAGUAUCCA; MIWI and MILI are mouse PIWI proteins and EfPiwi is from a freshwater sponge; tags in brackets are library labels; higher = faster piRNA-guided slicing of the target
Conditions: auxiliary factor: 500 nM Ephydatia muelleri Gtsf1
Description: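 Cleave-'n-Seq: a library of target RNAs (target site in constant flanks) at […] was incubated with 1 nM active freshwater sponge Ephydatia fluviatilis Piwi piRISC (synthetic 5'-monophosphorylated piRNA guide) with or without 500 nM EmGtsf1 at 33 °C for 1 min to 16 h. Uncleaved targets were sequenced and the pooled three trials fitted to a burst-and-steady-state model to give the pre-steady-state cleavage rate (min^-1). Sequence is the target site only. Fits with R² ≤ 0 are excluded.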

Q: GGAGACCUAACUAUACAACCUACACCUCA was tested. Which “pre-steady-state target cleavage rate” value did it give?
A: 0.00156 ± 0.0059

Q: Which “pre-steady-state target cleavage rate” value does the source give for GGAGACCAUACUAUACCAACCUACUACCUCA here?
A: 0.00761 ± 0.0031

Q: How did the “pre-steady-state target cleavage rate” value turn out when GGAGACCUAUCUAUACAAGCUACUUCCUCA was run?
A: 0.00291 ± 0.0037

Q: How did the “pre-steady-state target cleavage rate” value turn out when GGAGACCUAUGAAUACACACCUACUACCUCA was run?
A: 0.000246 ± 0.023

Q: GGAGACCUAUGAUAUCUACGUACUACCUCA was tested. Which “pre-steady-state target cleavage rate” value did it give?
A: 0.00023 ± 0.011

Q: GGAGACCUAUGAUAUCAACCAACUACGUCA was tested. Which “pre-steady-state target cleavage rate” value did it give?
A: 0.000797 ± 0.0068

Q: How did the “pre-steady-state target cleavage rate” value turn out when GGAGACCUAUGAUAUGUUGCGUACUACCUCA was run?
A: 0.000334 ± 0.01

Q: “GGAGUGGAUACUAUACAACCUACAUGGAGA [g8:g26:cont:t1A]” was tested. Which “pre-steady-state target cleavage rate” value did it give?
A: 0.00103 ± 0.0032

Q: How did the “pre-steady-state target cleavage rate” value turn out when GGAGACCUAUGAUAACAACGUACUACCUGA was run?
A: 0.00134 ± 0.006

Q: With GGAGACCAUACUAUACAUCCUACAACCUCA as the sequence, how does the “pre-steady-state target cleavage rate” value read?
A: 0.00248 ± 0.0024

Q: For GGAGACCUAUGAUAUCAACCUACUACCUCA, which “pre-steady-state target cleavage rate” value is on record?
A: 0.00158 ± 0.0045

Q: With GGAGACCUUACUUUAGAACCUACUACCUCA as the sequence, how does the “pre-steady-state target cleavage rate” value read?
A: 0.000986 ± 0.0046

Q: For GGAGACCUAAGAUUACAACCUACUACCUCA, which “pre-steady-state target cleavage rate” value is on record?
A: 0.00381 ± 0.004

Q: How did the “pre-steady-state target cleavage rate” value turn out when GGAGACCUAACUUUACAACCUACUAGCUCA was run?
A: 0.00152 ± 0.0074

Q: Which “pre-steady-state target cleavage rate” value does the source give for GGAGACCUAUGAUUACAACCUAGAACCUCA here?
A: 0.000515 ± 0.01

Q: For GGAGACCUAUCUAUACAACCUACAUGCUCA, which “pre-steady-state target cleavage rate” value is on record?
A: 0.000153 ± 0.021

Q: Which “pre-steady-state target cleavage rate” value does the source give for GGAGACCUUUGAAUACAACCUACUACCUCA here?
A: 0.00525 ± 0.0038

Q: Which “pre-steady-state target cleavage rate” value does the source give for GGAGACGAUACUAUACAACCUACUAGGACA here?
A: 0.00186 ± 0.0032

Q: With GGAGUGGAUACUAAACAACCAACUACCUCA as the sequence, how does the “pre-steady-state target cleavage rate” value read?
A: 0.0031 ± 0.0017

Q: Which “pre-steady-state target cleavage rate” value does the source give for GGAGACCUAACUAUACAACACUACUACCUCA here?
A: 0.00185 ± 0.0043

Q: With GGAGACCUAUGAUAACAACCUAUCUACCUCA as the sequence, how does the “pre-steady-state target cleavage rate” value read?
A: 0.000713 ± 0.0096

Q: Which “pre-steady-state target cleavage rate” value does the source give for “GGAGUGGAUACUAUACAACCUACUACCUCG [g2:g26:cont:t1G]” here?
A: 0.0718 ± 0.025

Q: GGAGACCUAACAAUUCAACCUACUACCUCA was tested. Which “pre-steady-state target cleavage rate” value did it give?
A: 0.00107 ± 0.0077

Q: How did the “pre-steady-state target cleavage rate” value turn out when GGAGACGAUAUCUAUACAACCUACUACCUCA was run?
A: 0.00603 ± 0.0041

Q: Which “pre-steady-state target cleavage rate” value does the source give for GGAGACCUAUCAAUACAACCUACUACCACA here?
A: 0.000786 ± 0.011

Q: With GGAGAGGAUACUAUACAACCUACUCCUCA as the sequence, how does the “pre-steady-state target cleavage rate” value read?
A: 0.00473 ± 0.0025

Q: With “GGAGACCUAUGUAUACAACCUACUACCUCG [g2:g19:cont:t1G]” as the sequence, how does the “pre-steady-state target cleavage rate” value read?
A: 0.00909 ± 0.0048

Q: GGAGACCUUACUAUACAAGCAACUACCUCA was tested. Which “pre-steady-state target cleavage rate” value did it give?
A: 0.00336 ± 0.0042

Q: For GGAGACCUUACUAUACAACCAACAACCUCA, which “pre-steady-state target cleavage rate” value is on record?
A: 0.000335 ± 0.0093

Q: How did the “pre-steady-state target cleavage rate” value turn out when GGAGACCUAUGAUAUGUACCUACUACGUCA was run?
A: 0.000553 ± 0.0091

Q: For GGAGACCUAUGAUAAGUUCCUACUACCUCA, which “pre-steady-state target cleavage rate” value is on record?
A: 0.00143 ± 0.0052

Q: With GGAGUGGAUAGUAUACAACCUACAACCUCA as the sequence, how does the “pre-steady-state target cleavage rate” value read?
A: 0.00254 ± 0.0017

Q: How did the “pre-steady-state target cleavage rate” value turn out when GGAGACCUUACUAUACAACCUACUAGCCUCA was run?
A: 0.00471 ± 0.0044

Q: With GGAGAGGAUACUAUACAUCCUACUAGCUCA as the sequence, how does the “pre-steady-state target cleavage rate” value read?
A: 0.00277 ± 0.0019

Q: Which “pre-steady-state target cleavage rate” value does the source give for GGAGACCUAUGAUUACAACCUACUACCCA here?
A: 0.00031 ± 0.015

Q: Which “pre-steady-state target cleavage rate” value does the source give for GGAGAGGAUACUAUACAUACCUACUACCUCA here?
A: 0.00503 ± 0.0053

Q: How did the “pre-steady-state target cleavage rate” value turn out when GGAGACCUAUCUAUACAACCUACUUGGUCA was run?
A: 0.00107 ± 0.005

Q: For GGAGUGGAAACUAUACAUCCUACUACCUCA, which “pre-steady-state target cleavage rate” value is on record?
A: 0.0101 ± 0.0045

Q: GGAGACGAUACUUUACAACCUACAACCUCA was tested. Which “pre-steady-state target cleavage rate” value did it give?
A: 0.0011 ± 0.0019

Q: How did the “pre-steady-state target cleavage rate” value turn out when GGAGACCUAACUAUACAACCUAGUACCACA was run?
A: 0.00588 ± 0.0049

Source: the supplement of paper PMC10338343
